Results are given in words; binding and its absence hold for the method and conditions named. In cells and extracts the contact can be indirect. Some results given as binding are weak or reduced against the parent protein; the word gives no strength. Tags and fused reporters may be left off the sequences shown.
Molecular target: T1, CENP-T^Cnp20-TAP (Schizosaccharomyces pombe) (UniProt Q9HGK9)
T1 sequence: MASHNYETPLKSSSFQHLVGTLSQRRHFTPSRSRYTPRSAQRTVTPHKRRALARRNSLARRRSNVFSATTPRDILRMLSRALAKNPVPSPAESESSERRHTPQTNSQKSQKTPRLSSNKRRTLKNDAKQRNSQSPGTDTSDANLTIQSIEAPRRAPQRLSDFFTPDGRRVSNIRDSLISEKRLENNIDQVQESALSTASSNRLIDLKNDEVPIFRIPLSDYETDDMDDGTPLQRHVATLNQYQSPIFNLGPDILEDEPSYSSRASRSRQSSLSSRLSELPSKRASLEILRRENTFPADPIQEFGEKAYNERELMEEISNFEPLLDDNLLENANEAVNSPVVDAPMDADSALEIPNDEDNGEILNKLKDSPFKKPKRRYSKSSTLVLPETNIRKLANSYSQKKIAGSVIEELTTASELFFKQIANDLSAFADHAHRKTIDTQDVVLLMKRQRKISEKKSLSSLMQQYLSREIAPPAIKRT
Test: co-IP; lysates of S. pombe cells expressing Ndc80-GFP and TAP-tagged Cnp20 or its CIM mutants, synchronized at metaphase (nda3-KM311) / in mitosis or unsynchronized (predominantly G2), immunoprecipitated with an antibody specific for TAP, Western blot with a GFP antibody; conditions of SI Fig. S18 not shown

binding: binds
B1: Ndc80-GFP (protein, UniProt Q10198 1-624)
chain: MQDSSSYARRYSQAPSSSNLRTTTFGFNGLGTSRTSLAPQRTLVNARQSIDPDGLSSRVLTPTMRPSLAPNTRRSSVRVSNASFISQTPNITSIKDPRPLSDRRYQQECATQVVNYLLESGFSQPLGLNNRFMPSTREFAAIFKHLYNKLDPNFRFGARYEEDVTTCLKALNYPFLDSISRSRLVAIGSPHVWPAILGMLHWVVSLIQCTEKAVAMVYTVEQNSLDDHLVDKVLFDYLVRTYHLYLDESPEESEPEKELKATFNQQNQDLYNQTEALKSTNEELINQIKSAEELDSAIQVLEERYRTMQRDEVKFQSAMSGMKSKMESRTNLMKQLQVNIEEKESQLQLLKEKRDSLKYQVENQDISISEFEKMVSEREQLDRNLNMIGSKISELRKEVFDTDLLIQASIDSLEKKVQKFNSLAYRIGIVPIAAIRSANNDFELEINPEGPNYINLDLKNKVRPFINEVRRSITLEFHEEQNKSLKLQEHVDTVNDLIAELQDELRGIESRLTSVLSECNMLRETASEEKNAFDAESDKLERELQQLKLSSHNSMLQLDQRIQSINIEADQIAHACMEYKNNIYKEVAFVLGEIIHFKLHVQDSLEDLKMDYQKELDDLSRSEL
